Source: patent US20200171163A1
These are yes or no findings as the source states them, for the method shown. Some entries that bind do so weakly or less than the wild type.

Columns and labels:
[1] = molecular target: T1, EC1 deletion mutant of human CDH6 (human) (UniProt P55285); test: flow cytometry, transfected 293α cells, 20 nM antibody
T1 sequence: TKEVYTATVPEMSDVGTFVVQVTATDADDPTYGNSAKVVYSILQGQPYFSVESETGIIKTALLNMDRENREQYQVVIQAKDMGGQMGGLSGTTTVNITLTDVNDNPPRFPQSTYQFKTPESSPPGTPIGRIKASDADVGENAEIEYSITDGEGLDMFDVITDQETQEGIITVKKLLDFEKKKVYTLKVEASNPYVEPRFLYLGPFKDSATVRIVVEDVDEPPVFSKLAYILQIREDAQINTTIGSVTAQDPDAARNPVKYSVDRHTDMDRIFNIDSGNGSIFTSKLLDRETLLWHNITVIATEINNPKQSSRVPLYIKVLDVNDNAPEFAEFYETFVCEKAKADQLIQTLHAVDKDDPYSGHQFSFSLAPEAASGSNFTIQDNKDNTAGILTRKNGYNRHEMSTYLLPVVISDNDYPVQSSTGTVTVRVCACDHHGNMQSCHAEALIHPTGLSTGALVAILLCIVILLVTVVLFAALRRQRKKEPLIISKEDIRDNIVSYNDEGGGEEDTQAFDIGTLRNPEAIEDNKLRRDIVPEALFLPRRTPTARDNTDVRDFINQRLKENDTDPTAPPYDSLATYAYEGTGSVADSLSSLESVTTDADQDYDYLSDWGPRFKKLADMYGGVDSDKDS

[2] = molecular target: T2, EC2 deletion mutant of human CDH6 (human) (UniProt P55285); test: as above
T2 sequence: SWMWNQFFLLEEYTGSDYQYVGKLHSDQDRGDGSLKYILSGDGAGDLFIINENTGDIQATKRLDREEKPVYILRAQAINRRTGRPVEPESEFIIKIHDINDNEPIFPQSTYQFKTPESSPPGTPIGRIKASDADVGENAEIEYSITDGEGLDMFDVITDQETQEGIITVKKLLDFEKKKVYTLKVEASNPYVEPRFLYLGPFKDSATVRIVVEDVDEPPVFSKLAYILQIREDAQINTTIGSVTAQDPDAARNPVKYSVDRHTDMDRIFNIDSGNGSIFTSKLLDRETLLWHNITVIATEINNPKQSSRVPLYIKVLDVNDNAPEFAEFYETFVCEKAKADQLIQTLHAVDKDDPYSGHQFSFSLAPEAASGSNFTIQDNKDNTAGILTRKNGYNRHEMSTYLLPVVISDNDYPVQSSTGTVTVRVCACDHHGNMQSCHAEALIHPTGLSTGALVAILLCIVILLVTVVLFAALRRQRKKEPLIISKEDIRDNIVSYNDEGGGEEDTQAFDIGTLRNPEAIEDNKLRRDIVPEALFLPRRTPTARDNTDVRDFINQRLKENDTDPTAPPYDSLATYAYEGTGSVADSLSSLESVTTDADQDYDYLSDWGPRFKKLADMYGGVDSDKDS

[3] = molecular target: T3, EC4 deletion mutant of human CDH6 (human) (UniProt P55285); test: as above
T3 sequence: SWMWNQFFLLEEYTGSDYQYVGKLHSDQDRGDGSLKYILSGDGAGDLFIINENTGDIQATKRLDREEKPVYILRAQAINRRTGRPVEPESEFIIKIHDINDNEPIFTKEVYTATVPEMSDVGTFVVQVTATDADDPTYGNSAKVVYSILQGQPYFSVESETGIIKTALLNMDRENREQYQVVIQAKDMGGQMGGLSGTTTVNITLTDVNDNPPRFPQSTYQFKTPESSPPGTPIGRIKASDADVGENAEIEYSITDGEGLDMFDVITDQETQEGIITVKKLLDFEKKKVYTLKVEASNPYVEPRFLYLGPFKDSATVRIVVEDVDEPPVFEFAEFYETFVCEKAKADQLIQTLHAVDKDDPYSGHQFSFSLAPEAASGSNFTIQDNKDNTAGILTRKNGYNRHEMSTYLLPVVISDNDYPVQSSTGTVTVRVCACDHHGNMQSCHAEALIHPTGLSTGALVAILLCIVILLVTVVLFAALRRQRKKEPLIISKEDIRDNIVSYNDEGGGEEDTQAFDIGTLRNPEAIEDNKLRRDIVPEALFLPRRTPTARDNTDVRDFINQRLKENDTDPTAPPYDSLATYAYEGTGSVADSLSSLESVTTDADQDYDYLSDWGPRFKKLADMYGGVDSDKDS

[4] = molecular target: T4, EC5 deletion mutant of human CDH6 (human) (UniProt P55285); test: as above
T4 sequence: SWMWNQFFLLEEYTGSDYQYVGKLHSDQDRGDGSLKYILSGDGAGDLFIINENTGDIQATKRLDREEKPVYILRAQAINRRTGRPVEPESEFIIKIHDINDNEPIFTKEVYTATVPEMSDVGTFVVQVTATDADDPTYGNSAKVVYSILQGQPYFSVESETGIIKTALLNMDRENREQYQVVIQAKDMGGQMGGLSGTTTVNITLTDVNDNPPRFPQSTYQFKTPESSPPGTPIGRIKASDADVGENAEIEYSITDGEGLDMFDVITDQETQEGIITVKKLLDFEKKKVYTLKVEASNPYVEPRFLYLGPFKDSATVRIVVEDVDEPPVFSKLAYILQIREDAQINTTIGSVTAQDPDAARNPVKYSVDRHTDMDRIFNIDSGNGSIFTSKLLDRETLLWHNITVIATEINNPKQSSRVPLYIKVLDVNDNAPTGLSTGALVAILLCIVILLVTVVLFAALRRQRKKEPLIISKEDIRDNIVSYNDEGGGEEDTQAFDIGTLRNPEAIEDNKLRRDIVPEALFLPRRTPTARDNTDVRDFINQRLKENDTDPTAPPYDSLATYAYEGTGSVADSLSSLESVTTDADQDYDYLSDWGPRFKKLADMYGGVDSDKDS

[5] = molecular target: T1, EC1 deletion mutant of human CDH6 (human); test: flow cytometry; 293α cells transfected with EC1-deleted hCDH6 (open) vs untransfected control cells (shaded); antibody 20 nM; anti-rat IgG-FITC
[6] = molecular target: T2, EC2 deletion mutant of human CDH6 (human); test: flow cytometry; 293α cells transfected with EC2-deleted hCDH6 (open) vs untransfected control cells (shaded); antibody 20 nM; anti-rat IgG-FITC
[7] = molecular target: T3, EC4 deletion mutant of human CDH6 (human); test: flow cytometry; 293α cells transfected with EC4-deleted hCDH6 (open) vs untransfected control cells (shaded); antibody 20 nM; anti-rat IgG-FITC
[8] = molecular target: T4, EC5 deletion mutant of human CDH6 (human); test: flow cytometry; 293α cells transfected with EC5-deleted hCDH6 (open) vs untransfected control cells (shaded); antibody 20 nM; anti-rat IgG-FITC
[9] = molecular target: T1, EC1 deletion mutant of human CDH6 (human); test: flow cytometry, transfected 293α cells
[10] = molecular target: T2, EC2 deletion mutant of human CDH6 (human); test: flow cytometry, transfected 293α cells
[11] = molecular target: T3, EC4 deletion mutant of human CDH6 (human); test: flow cytometry, transfected 293α cells
[12] = molecular target: T4, EC5 deletion mutant of human CDH6 (human); test: flow cytometry, transfected 293α cells
[13] = molecular target: T1, EC1 deletion mutant of human CDH6 (human); test: flow cytometry; 293α cells transfected with EC1-deleted hCDH6 (open) vs untransfected control cells (shaded); APC anti-human IgG
[14] = molecular target: T2, EC2 deletion mutant of human CDH6 (human); test: flow cytometry; 293α cells transfected with EC2-deleted hCDH6 (open) vs untransfected control cells (shaded); APC anti-human IgG
[15] = molecular target: T3, EC4 deletion mutant of human CDH6 (human); test: flow cytometry; 293α cells transfected with EC4-deleted hCDH6 (open) vs untransfected control cells (shaded); APC anti-human IgG
[16] = molecular target: T4, EC5 deletion mutant of human CDH6 (human); test: flow cytometry; 293α cells transfected with EC5-deleted hCDH6 (open) vs untransfected control cells (shaded); APC anti-human IgG

Measured: binding

B1: rG055 antibody (antibody, V domains shown)
VH: EVQLQESGPGLVRPSQSLSLSCSVTDYSITSNYWGWIRRFPGNKMEWMGYITYSGYTSYNPSLQSRISITRDTSKNQFFLQLNSVTAEDTATYYCARSINHGGYSYVVDAWGPGASVTVSS
VL: DVQMTHSPSYLAASPGESVSISCKTSKNISNYLVWYQQKPGEAYKLLIYSGSTLQSGTPSRFSGSGSGTDFTLTIRSLEPEDFGLYFCQQYYEKPFTFGSGTKLEIKR
binds: [1] | [2] | [3] | [4] | [5] | [6] | [7] | [8]

B2: rG056 antibody (antibody, V domains shown)
VH: EVQLQESGPGLVKPSQSLSLTCSVTDYSITTYFWGWIRKFPGNKMEWMGYMSYRGGTSYNPSLKSRISITRDTSKNQFFLQLNSVTTEDTATYYCARCPNYGGHSLVFDYWGQGVMVTVSS
VL: DVQMTQSPSSLAASPGESVSISCRATKSIGIYLAWYQQKPGKTFKLLIYSGSTLQSGTPSRFSGSGSGTDFTLTIRSLEPEDFGLYFCQQFYENPFTFGSGTKLEIRR
binds: [1] | [2] | [3] | [4] | [5] | [6] | [7] | [8]

B3: rG061 antibody (antibody, V domains shown)
VH: EVQLQESGPGLVKPSQSLSLTCSVTGYSITTYYWGWIRKFPGNKMEWMGYISYSGRTSYNPSLKSRMSITRDASKNQFFLQLNSVTTDDTATYYCARSPINHGGYWYFDFWGPGTMVTVSS
VL: DVQMTQSPSYLAASPGESVSISCKATKSISNYLAWYQQKPGEAYKVLIYSGSTLQSGTPSRFSGSGSGTDFTLTIRSLEPEDFGLYSCQQYYEKPLTFGSGTKLEIKR
binds: [1] | [2] | [3] | [4] | [5] | [6] | [7] | [8]

B4: rG019 antibody (antibody, V domains shown)
VH: QVQLQQSGAELVKPGSSVKISCKASGYTFTRNFMHWIKQQPGNGLEWIGWIYCGDGETEYNQKFNGKATLTADRSSSTAYMELSRLTSEDSAVYFCARGVYGGFAGGYFDFWGQGVMVTVSS
VL: DIQMTQSPSLLSASVGDRVTLNCKASQNIYKNLAWYQQKLGEGPKLLIYDANTLQTGIPSRFSGSGSGSDFTLTISSLQPEDVATYFCQQYYSGWAFGGVTNLELKRA
binds: [1] | [2] | [3] | [4] | [5] | [6] | [7] | [8]

B5: H02L02 antibody (antibody, human IgG1, kappa, V domains shown)
VH: EVQLVQSGAEVKKPGASVKVSCKASGYTFTRNFMHWVRQAPGQGLEWMGWIYPGDGETEYNQKFQGRVTITADRSTSTAYMELSSLRSEDTAVYFCARGVYGGFAGGYFDFWGQGTLVTVSS
VL: DIQMTQSPSSLSASVGDRVTITCKASQNIYKNLAWYQQKPGKAPKLLIYDANTLQTGVPSRFSGSGSGSDFTLTISSLQPEDFATYFCQQYYSGWAFGQGTKVEIKR
binds: [9] | [10] | [11] | [12] | [13] | [14] | [15] | [16]

B6: H02L03 antibody (antibody, human IgG1, kappa, V domains shown)
VH: EVQLVQSGAEVKKPGASVKVSCKASGYTFTRNFMHWVRQAPGQGLEWMGWIYPGDGETEYNQKFQGRVTITADRSTSTAYMELSSLRSEDTAVYFCARGVYGGFAGGYFDFWGQGTLVTVSS
VL: DIQMTQSPSSLSASVGDRVTITCKASQNIYKNLAWYQQKLGEGPKLLIYDANTLQTGVPSRFSGSGSGTDFTLTISSLQPEDFATYYCQQYYSGWAFGQGTKVEIKR
binds: [9] | [10] | [11] | [12] | [13] | [14] | [15] | [16]
